In US20110076234A1 (MOLMED, published 2011):
These are yes or no findings as the source states them, for the method shown. Binding can be weak; no strength is given.

Molecular target: Human αvβ3 integrin (purified) (human)
Test: competitive ELISA: biotinylated FN-I5/streptavidin-peroxidase on αvβ3-coated plates

B1: Loop-GNGRG peptide of FN-I5 (peptide corresponding to the entire 256-271 loop of FN-I5) (peptide)
peptide: LQCISTGNGRGEWKCE
With B1 the binding was “binds”.
